# The supplement of paper PMC8728848
# Some of the results follow.
# B1: Epf (Streptococcus pyogenes) (protein)
# chain: GDHGPEFNGVMVVKAAEAEELPDDLMNFKGTWEVSADGSSGRFFSKGATDSYVFHLIPAKDVKKPGWREHNEVKDSYIKIDKQSIAARYKTSTTAPYSVAFKVNTKSLIKDHDYKITFEQGQIASGITVDYRIGSAFNKTTDDSFKISDESKYASNVKIEGEEQGFKQREQGDKTISFRTLKEGPMSLVLLSKVEKKPQGDLDVEFKNLKIIDVTNPSQLDKGVAYVGNKNVQLTLKSDDGRTNFEGDEISLFNSRGELLQTVTVTKDQQNPISITLSEDQAKSLKNKEKLKVSIKQKQSKKTSKDFFFEVGIDPKVEAKQKEKLLELDKVKKQIEDSINGDAWLPEKPVDLQGDHGLSAWSHPQFEK
# How the values were obtained:
# Experiment in all cases: glycan array binding signal (z-score within array); higher = stronger binding
# Details in all cases: glycan notation: IUPAC condensed, linker removed
# [1] = target: Fuc(a1-2)Gal(b1-4)GlcNAc(b1-3)Gal(b1-4)GlcNAc(b1-3)Gal(b1-4)GlcNAc
# Outline: (§1)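 Negative Z-scores can be read as non-binding. The Z-score is calculated within each array and then averaged across arrays of one protein sequence at different concentrations or buffers and across linkers. Arrays, 3228 in all, were curated from the Consortium for Functional Glycomics database and kept only where the protein sequence was available.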
# [2] = target: Fuc(a1-2)Gal(b1-4)GlcNAc(b1-3)GalNAc
# Outline: as §1
# [3] = target: Fuc(a1-2)Gal(b1-4)GlcNAc(b1-3)[Fuc(a1-2)Gal(b1-4)GlcNAc(b1-6)]GalNAc
# Outline: as §1
# [4] = target: Fuc(a1-2)Gal(b1-4)GlcNAc(b1-3)[Fuc(a1-3)[Gal(b1-4)]GlcNAc(b1-6)]Gal(b1-4)Glc
# Outline: as §1
# [5] = target: Fuc(a1-2)Gal(b1-4)GlcNAc(b1-6)GalNAc
# Outline: as §1
# [6] = target: Fuc(a1-2)Gal(b1-4)GlcNAc6S
# Outline: as §1
# [7] = target: Fuc(a1-2)Gal(b1-4)[Fuc(a1-3)]GlcNAc
# Outline: as §1
# [8] = target: Fuc(a1-2)Gal(b1-4)[Fuc(a1-3)]GlcNAc(b1-2)Man(a1-3)[Fuc(a1-2)Gal(b1-4)[Fuc(a1-3)]GlcNAc(b1-2)Man(a1-6)]Man(b1-4)GlcNAc(b1-4)[Fuc(a1-6)]GlcNAc
# Outline: as §1
# [9] = target: Fuc(a1-2)Gal(b1-4)[Fuc(a1-3)]GlcNAc(b1-2)[Fuc(a1-2)Gal(b1-4)[Fuc(a1-3)]GlcNAc(b1-4)]Man(a1-3)[Fuc(a1-2)Gal(b1-4)[Fuc(a1-3)]GlcNAc(b1-2)Man(a1-6)]Man(b1-4)GlcNAc(b1-4)GlcNAc
# Outline: as §1
# [10] = target: Fuc(a1-2)Gal(b1-4)[Fuc(a1-3)]GlcNAc(b1-3)Gal(b1-4)[Fuc(a1-3)]GlcNAc
# Outline: as §1
# [11] = target: Fuc(a1-2)Gal(b1-4)[Fuc(a1-3)]GlcNAc(b1-3)Gal(b1-4)[Fuc(a1-3)]GlcNAc(b1-3)Gal(b1-4)[Fuc(a1-3)]GlcNAc
# Outline: as §1
# [12] = target: Fuc(a1-2)Gal(b1-4)[Fuc(a1-3)]GlcNAc(b1-3)GalNAc
# Outline: as §1
# [13] = target: Fuc(a1-2)Gal(b1-4)[Fuc(a1-3)]GlcNAc(b1-3)[Neu5Ac(a2-6)Gal(b1-4)GlcNAc(b1-6)]Gal(b1-4)Glc
# Outline: as §1
# [14] = target: Fuc(a1-2)Gal3S(b1-4)GlcNAc
# Outline: as §1
# [15] = target: Fuc(a1-2)Gal6S(b1-3)GlcNAc
# Outline: as §1
# [16] = target: Fuc(a1-2)Gal6S(b1-3)GlcNAc6S
# Outline: as §1
# Fuc(a1-2)Gal6S(b1-4)Glc = target: Fuc(a1-2)Gal6S(b1-4)Glc
# Outline: as §1
# [17] = target: Fuc(a1-2)Gal6S(b1-4)Glc6S
# Outline: as §1
# Fuc(a1-2)[Gal(a1-3)]Gal = target: Fuc(a1-2)[Gal(a1-3)]Gal
# Outline: as §1
# [18] = target: Fuc(a1-2)[Gal(a1-3)]Gal(b1-3)GalNAc
# Outline: as §1
# [19] = target: Fuc(a1-2)[Gal(a1-3)]Gal(b1-3)GalNAc(b1-3)Gal(a1-4)Gal(b1-4)Glc
# Outline: as §1
# [20] = target: Fuc(a1-2)[Gal(a1-3)]Gal(b1-3)GlcNAc
# Outline: as §1
# [21] = target: Fuc(a1-2)[Gal(a1-3)]Gal(b1-3)GlcNAc(b1-2)Man(a1-3)[Fuc(a1-2)[Gal(a1-3)]Gal(b1-3)GlcNAc(b1-2)Man(a1-6)]Man(b1-4)GlcNAc(b1-4)GlcNAc
# Outline: as §1
# [22] = target: Fuc(a1-2)[Gal(a1-3)]Gal(b1-3)GlcNAc(b1-2)Man(a1-3)[Fuc(a1-2)[Gal(a1-3)]Gal(b1-3)GlcNAc(b1-2)Man(a1-6)]Man(b1-4)GlcNAc(b1-4)[Fuc(a1-6)]GlcNAc
# Outline: as §1
# [23] = target: Fuc(a1-2)[Gal(a1-3)]Gal(b1-3)GlcNAc(b1-3)GalNAc
# Outline: as §1
# [24] = target: Fuc(a1-2)[Gal(a1-3)]Gal(b1-3)GlcNAc(b1-6)GalNAc
# Outline: as §1
# [25] = target: Fuc(a1-2)[Gal(a1-3)]Gal(b1-4)Glc
# Outline: as §1
# [26] = target: Fuc(a1-2)[Gal(a1-3)]Gal(b1-4)GlcNAc
# Outline: as §1
# [27] = target: Fuc(a1-2)[Gal(a1-3)]Gal(b1-4)GlcNAc(b1-2)Man
# Outline: as §1
# [28] = target: Fuc(a1-2)[Gal(a1-3)]Gal(b1-4)GlcNAc(b1-2)Man(a1-3)[Fuc(a1-2)[Gal(a1-3)]Gal(b1-4)GlcNAc(b1-2)Man(a1-6)]Man(b1-4)GlcNAc(b1-4)GlcNAc
# Outline: as §1
binder,measurement,setting,value
B1,glycan array binding signal (z-score),[1],0.943
same,glycan array binding signal (z-score),[2],-1.19
same,glycan array binding signal (z-score),[3],0.153
same,glycan array binding signal (z-score),[4],2.21
same,glycan array binding signal (z-score),[5],-0.587
same,glycan array binding signal (z-score),[6],0.501
same,glycan array binding signal (z-score),[7],-0.853
same,glycan array binding signal (z-score),[8],-1.29
same,glycan array binding signal (z-score),[9],0.228
same,glycan array binding signal (z-score),[10],-0.184
same,glycan array binding signal (z-score),[11],0.128
same,glycan array binding signal (z-score),[12],0.994
same,glycan array binding signal (z-score),[13],-0.99
same,glycan array binding signal (z-score),[14],0.41
same,glycan array binding signal (z-score),[15],0.24
same,glycan array binding signal (z-score),[16],0.499
same,glycan array binding signal (z-score),Fuc(a1-2)Gal6S(b1-4)Glc,0.606
same,glycan array binding signal (z-score),[17],0.2
same,glycan array binding signal (z-score),Fuc(a1-2)[Gal(a1-3)]Gal,0.412
same,glycan array binding signal (z-score),[18],0.862
same,glycan array binding signal (z-score),[19],-0.654
same,glycan array binding signal (z-score),[20],-0.189
same,glycan array binding signal (z-score),[21],-0.435
same,glycan array binding signal (z-score),[22],1.45
same,glycan array binding signal (z-score),[23],-1.16
same,glycan array binding signal (z-score),[24],-0.371
same,glycan array binding signal (z-score),[25],-0.394
same,glycan array binding signal (z-score),[26],-0.265
same,glycan array binding signal (z-score),[27],0.986
same,glycan array binding signal (z-score),[28],1.75

# Exported as tab-separated lines: part of the list above
binder	measurement	setting	value
B1	glycan array binding signal (z-score)	[4]	2.21
same	glycan array binding signal (z-score)	[5]	-0.587
same	glycan array binding signal (z-score)	[6]	0.501
same	glycan array binding signal (z-score)	[7]	-0.853
same	glycan array binding signal (z-score)	[8]	-1.29
